Our source for the binding values is paper PMC11343034, “CDCA7 is an evolutionarily conserved hemimethylated DNA sensor in eukaryotes”.

These are yes or no findings as the source states them, for the method shown. Binding seen in cells or lysates may run through a third protein.

The target of experiment [1] is T1, HELLS, endogenous in Xenopus egg extracts (X. laevis (endogenous in Xenopus egg extracts)) (UniProt Q4V835).
T1 sequence: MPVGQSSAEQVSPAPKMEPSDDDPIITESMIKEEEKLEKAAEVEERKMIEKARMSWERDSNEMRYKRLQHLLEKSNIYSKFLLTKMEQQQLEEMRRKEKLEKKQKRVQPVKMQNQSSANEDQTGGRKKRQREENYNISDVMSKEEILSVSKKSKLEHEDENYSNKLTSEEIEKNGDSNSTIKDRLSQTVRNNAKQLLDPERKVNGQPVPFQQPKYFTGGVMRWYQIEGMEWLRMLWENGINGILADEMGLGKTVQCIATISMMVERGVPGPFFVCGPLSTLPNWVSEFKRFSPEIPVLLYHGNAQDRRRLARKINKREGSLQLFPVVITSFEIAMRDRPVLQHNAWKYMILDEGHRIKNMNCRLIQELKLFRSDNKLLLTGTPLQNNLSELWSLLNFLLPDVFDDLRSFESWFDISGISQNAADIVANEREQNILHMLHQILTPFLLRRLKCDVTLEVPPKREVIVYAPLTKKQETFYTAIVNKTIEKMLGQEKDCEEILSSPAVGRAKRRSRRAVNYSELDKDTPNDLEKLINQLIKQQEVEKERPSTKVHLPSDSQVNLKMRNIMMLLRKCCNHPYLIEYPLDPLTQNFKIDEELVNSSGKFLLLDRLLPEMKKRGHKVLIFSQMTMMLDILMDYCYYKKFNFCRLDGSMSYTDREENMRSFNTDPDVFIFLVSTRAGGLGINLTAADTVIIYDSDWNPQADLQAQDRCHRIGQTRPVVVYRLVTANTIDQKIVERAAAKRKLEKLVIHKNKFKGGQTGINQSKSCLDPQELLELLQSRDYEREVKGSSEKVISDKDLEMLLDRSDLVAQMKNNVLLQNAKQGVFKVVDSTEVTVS
The experiment is described as follows: co-IP; anti-HELLS antibody (12.5 ug) on Protein A Dynabeads; Xenopus egg extract (25 ul) with 2 ul 35S-labeled UHRF1 and 2 ul 35S-labeled CDCA7 TnT lysates; on ice 1 hour; autoradiography (fig. S2D).

The target in experiment [2] is T2, UHRF1, endogenous in Xenopus egg extracts (X. laevis (endogenous in Xenopus egg extracts)) (UniProt B6CHA3).
T2 sequence: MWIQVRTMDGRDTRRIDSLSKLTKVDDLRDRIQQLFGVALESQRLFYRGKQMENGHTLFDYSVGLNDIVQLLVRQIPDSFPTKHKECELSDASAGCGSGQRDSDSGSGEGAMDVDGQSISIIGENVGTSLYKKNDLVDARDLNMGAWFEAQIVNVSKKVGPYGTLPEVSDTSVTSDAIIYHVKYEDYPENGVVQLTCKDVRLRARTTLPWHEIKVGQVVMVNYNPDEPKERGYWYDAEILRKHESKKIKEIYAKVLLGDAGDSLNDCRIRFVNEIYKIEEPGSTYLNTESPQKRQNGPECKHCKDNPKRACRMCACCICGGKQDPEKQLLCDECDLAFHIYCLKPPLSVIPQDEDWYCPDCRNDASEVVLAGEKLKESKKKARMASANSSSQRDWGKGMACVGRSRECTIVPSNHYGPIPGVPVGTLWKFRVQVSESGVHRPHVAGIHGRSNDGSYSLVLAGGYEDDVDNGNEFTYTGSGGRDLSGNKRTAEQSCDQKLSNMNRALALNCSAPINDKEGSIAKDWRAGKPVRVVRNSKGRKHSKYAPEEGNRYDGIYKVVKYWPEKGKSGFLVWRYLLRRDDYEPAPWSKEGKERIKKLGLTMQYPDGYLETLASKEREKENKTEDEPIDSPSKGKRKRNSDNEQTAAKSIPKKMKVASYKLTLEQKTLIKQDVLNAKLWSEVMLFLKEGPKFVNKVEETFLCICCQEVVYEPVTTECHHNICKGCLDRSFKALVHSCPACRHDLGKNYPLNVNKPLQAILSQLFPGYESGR
Nature of the experiment: co-IP; anti-UHRF1 serum (85 ul) on Protein A Dynabeads; Xenopus egg extract (25 ul) with 3.5 ul 35S-labeled HELLS and 0.5 ul 35S-labeled UHRF1 TnT lysates; on ice 1 hour; autoradiography (fig. S2E).

B1: UHRF1, 35S-labeled (protein, UniProt B6CHA3 1-772)
chain: MWIQVRTMDGRDTRRIDSLSKLTKVDDLRDRIQQLFGVALESQRLFYRGKQMENGHTLFDYSVGLNDIVQLLVRQIPDSFPTKHKECELSDASAGCGSGQRDSDSGSGEGAMDVDGQSISIIGENVGTSLYKKNDLVDARDLNMGAWFEAQIVNVSKKVGPYGTLPEVSDTSVTSDAIIYHVKYEDYPENGVVQLTCKDVRLRARTTLPWHEIKVGQVVMVNYNPDEPKERGYWYDAEILRKHESKKIKEIYAKVLLGDAGDSLNDCRIRFVNEIYKIEEPGSTYLNTESPQKRQNGPECKHCKDNPKRACRMCACCICGGKQDPEKQLLCDECDLAFHIYCLKPPLSVIPQDEDWYCPDCRNDASEVVLAGEKLKESKKKARMASANSSSQRDWGKGMACVGRSRECTIVPSNHYGPIPGVPVGTLWKFRVQVSESGVHRPHVAGIHGRSNDGSYSLVLAGGYEDDVDNGNEFTYTGSGGRDLSGNKRTAEQSCDQKLSNMNRALALNCSAPINDKEGSIAKDWRAGKPVRVVRNSKGRKHSKYAPEEGNRYDGIYKVVKYWPEKGKSGFLVWRYLLRRDDYEPAPWSKEGKERIKKLGLTMQYPDGYLETLASKEREKENKTEDEPIDSPSKGKRKRNSDNEQTAAKSIPKKMKVASYKLTLEQKTLIKQDVLNAKLWSEVMLFLKEGPKFVNKVEETFLCICCQEVVYEPVTTECHHNICKGCLDRSFKALVHSCPACRHDLGKNYPLNVNKPLQAILSQLFPGYESGR
modifications: 35S-labelled methionine
With B1, the binding entry in experiment [1] is recorded as “no binding”.

B2: X. laevis HELLS, wild type, 35S-labeled (protein, UniProt Q4V835 1-838)
chain: MPVGQSSAEQVSPAPKMEPSDDDPIITESMIKEEEKLEKAAEVEERKMIEKARMSWERDSNEMRYKRLQHLLEKSNIYSKFLLTKMEQQQLEEMRRKEKLEKKQKRVQPVKMQNQSSANEDQTGGRKKRQREENYNISDVMSKEEILSVSKKSKLEHEDENYSNKLTSEEIEKNGDSNSTIKDRLSQTVRNNAKQLLDPERKVNGQPVPFQQPKYFTGGVMRWYQIEGMEWLRMLWENGINGILADEMGLGKTVQCIATISMMVERGVPGPFFVCGPLSTLPNWVSEFKRFSPEIPVLLYHGNAQDRRRLARKINKREGSLQLFPVVITSFEIAMRDRPVLQHNAWKYMILDEGHRIKNMNCRLIQELKLFRSDNKLLLTGTPLQNNLSELWSLLNFLLPDVFDDLRSFESWFDISGISQNAADIVANEREQNILHMLHQILTPFLLRRLKCDVTLEVPPKREVIVYAPLTKKQETFYTAIVNKTIEKMLGQEKDCEEILSSPAVGRAKRRSRRAVNYSELDKDTPNDLEKLINQLIKQQEVEKERPSTKVHLPSDSQVNLKMRNIMMLLRKCCNHPYLIEYPLDPLTQNFKIDEELVNSSGKFLLLDRLLPEMKKRGHKVLIFSQMTMMLDILMDYCYYKKFNFCRLDGSMSYTDREENMRSFNTDPDVFIFLVSTRAGGLGINLTAADTVIIYDSDWNPQADLQAQDRCHRIGQTRPVVVYRLVTANTIDQKIVERAAAKRKLEKLVIHKNKFKGGQTGINQSKSCLDPQELLELLQSRDYEREVKGSSEKVISDKDLEMLLDRSDLVAQMKNNVLLQNAKQGVFKVVDSTEVTVS
modifications: 35S-labelled methionine
With B2, the binding result in experiment [2] is given as “no binding”.
